Source: PubChem BioAssay AID652272 (Drosophila RNAi Screening Center, 2013)
The screen tested about 21,000 reagents; below is an unselected part of those that have a named target and a result. Over the whole deposit, 503 (2.4%) were called active. 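Raw plate light values, not normalised; calls rest on replicate z-scores that were not deposited; hits include reporter decreases as well as increases.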 The record does not give: the amount of reagent, the time to read-out.

Aim: 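Finding fly genes that regulate Hedgehog signal transduction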 (primary screen)
Cells: Drosophila clone 8 (Cl8) cells
Reagent: long dsRNA against Drosophila genes
Measurement: 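Plate reader light from a firefly reporter under a ptc promoter fragment that responds to Hedgehog, with Renilla light as transfection reference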
Scale: firefly Hh reporter signal: higher = more ptc reporter light; Renilla reference signal: higher = more Renilla control light
Call rule: 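Called a hit if the two-replicate mean z-score lies below -2 or above +3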
Calls: active = hit: reporter lowered or raised; inactive = not a hit

{"gene knocked down": "CG4440", "dsRNA": "DRSC02747", "firefly Hh reporter signal, replicate 1": 1.18e5, "firefly Hh reporter signal, replicate 2": 45841, "Renilla reference signal, replicate 1": 3366, "Renilla reference signal, replicate 2": 4052, "outcome": "inactive"}
{"gene knocked down": "TkR99D (Tachykinin-like receptor at 99D)", "dsRNA": "DRSC16881", "firefly Hh reporter signal, replicate 1": 1.31e5, "firefly Hh reporter signal, replicate 2": 1.60e5, "Renilla reference signal, replicate 1": 4498, "Renilla reference signal, replicate 2": 4483, "outcome": "inactive"}
{"gene knocked down": "Ccp84Ac", "dsRNA": "DRSC12588", "firefly Hh reporter signal, replicate 1": 1.05e5, "firefly Hh reporter signal, replicate 2": 1.47e5, "Renilla reference signal, replicate 1": 4389, "Renilla reference signal, replicate 2": 4811, "outcome": "inactive"}
{"gene knocked down": "CG10338", "dsRNA": "DRSC02039", "firefly Hh reporter signal, replicate 1": 64733, "firefly Hh reporter signal, replicate 2": 60836, "Renilla reference signal, replicate 1": 1712, "Renilla reference signal, replicate 2": 5057, "outcome": "inactive"}
{"gene knocked down": "CG13408", "dsRNA": "DRSC13534", "firefly Hh reporter signal, replicate 1": 51052, "firefly Hh reporter signal, replicate 2": 1.77e5, "Renilla reference signal, replicate 1": 10938, "Renilla reference signal, replicate 2": 4150, "outcome": "inactive"}
{"gene knocked down": "CG13408", "dsRNA": "DRSC14584", "firefly Hh reporter signal, replicate 1": 7.79e5, "firefly Hh reporter signal, replicate 2": 1.72e5, "Renilla reference signal, replicate 1": 40715, "Renilla reference signal, replicate 2": 13346, "outcome": "inactive"}
{"gene knocked down": "CG11134", "dsRNA": "DRSC19384", "firefly Hh reporter signal, replicate 1": 4.17e5, "firefly Hh reporter signal, replicate 2": 89970, "Renilla reference signal, replicate 1": 3606, "Renilla reference signal, replicate 2": 3606, "outcome": "inactive"}
{"gene knocked down": "RPA1 (Replication protein A1)", "dsRNA": "DRSC16830", "firefly Hh reporter signal, replicate 1": 71777, "firefly Hh reporter signal, replicate 2": 90965, "Renilla reference signal, replicate 1": 3173, "Renilla reference signal, replicate 2": 3843, "outcome": "inactive"}
{"gene knocked down": "mbl (muscleblind)", "dsRNA": "DRSC05657", "firefly Hh reporter signal, replicate 1": 5.73e5, "firefly Hh reporter signal, replicate 2": 1.25e5, "firefly Hh reporter signal, replicate 3": 86521, "Renilla reference signal, replicate 1": 4376, "Renilla reference signal, replicate 2": 4007, "outcome": "inactive"}
{"gene knocked down": "mbl (muscleblind)", "dsRNA": "DRSC06449", "firefly Hh reporter signal, replicate 1": 59173, "firefly Hh reporter signal, replicate 2": 62660, "Renilla reference signal, replicate 1": 3505, "Renilla reference signal, replicate 2": 2689, "outcome": "inactive"}
{"gene knocked down": "mbl (muscleblind)", "dsRNA": "DRSC07651", "firefly Hh reporter signal, replicate 1": 51830, "firefly Hh reporter signal, replicate 2": 19905, "Renilla reference signal, replicate 1": 1562, "Renilla reference signal, replicate 2": 1629, "outcome": "inactive"}
{"gene knocked down": "alpha-Est3 (alpha-Esterase-3)", "dsRNA": "DRSC12615", "firefly Hh reporter signal, replicate 1": 1.36e5, "firefly Hh reporter signal, replicate 2": 95977, "Renilla reference signal, replicate 1": 5312, "Renilla reference signal, replicate 2": 3802, "outcome": "inactive"}
{"gene knocked down": "E(Pc) (Enhancer of Polycomb)", "dsRNA": "DRSC05281", "firefly Hh reporter signal, replicate 1": 67210, "firefly Hh reporter signal, replicate 2": 1.30e5, "Renilla reference signal, replicate 1": 2373, "Renilla reference signal, replicate 2": 7712, "outcome": "inactive"}
{"gene knocked down": "E(Pc) (Enhancer of Polycomb)", "dsRNA": "DRSC07408", "firefly Hh reporter signal, replicate 1": 57577, "firefly Hh reporter signal, replicate 2": 34886, "Renilla reference signal, replicate 1": 2154, "Renilla reference signal, replicate 2": 3961, "outcome": "active"}

2 entries already listed, arranged by “firefly Hh reporter signal, replicate 1”, lowest first.
{"gene knocked down": "mbl (muscleblind)", "dsRNA": "DRSC07651", "firefly Hh reporter signal, replicate 1": 51830, "firefly Hh reporter signal, replicate 2": 19905, "Renilla reference signal, replicate 1": 1562, "Renilla reference signal, replicate 2": 1629, "outcome": "inactive"}
{"gene knocked down": "alpha-Est3 (alpha-Esterase-3)", "dsRNA": "DRSC12615", "firefly Hh reporter signal, replicate 1": 1.36e5, "firefly Hh reporter signal, replicate 2": 95977, "Renilla reference signal, replicate 1": 5312, "Renilla reference signal, replicate 2": 3802, "outcome": "inactive"}
